PMC11342681

Biological target: ΔNp63 (human (endogenous in MCF10A MII))
Test: affinity purification with mass spectrometry; nuclear fractions of MCF10A MII cells treated or not with TGFβ (5 ng/ml) for 6 h; immunoprecipitation with a p63 antibody on protein A Dynabeads; on-bead trypsin digestion, LC-MS/MS

- binding: binds
B1: AP-1 family transcription factor JUNB (protein, UniProt P17275 1-347)
chain: MCTKMEQPFYHDDSYTATGYGRAPGGLSLHDYKLLKPSLAVNLADPYRSLKAPGARGPGPEGGGGGSYFSGQGSDTGASLKLASSELERLIVPNSNGVITTTPTPPGQYFYPRGGGSGGGAGGAGGGVTEEQEGFADGFVKALDDLHKMNHVTPPNVSLGATGGPPAGPGGVYAGPEPPPVYTNLSSYSPASASSGGAGAAVGTGSSYPTTTISYLPHAPPFAGGHPAQLGLGRGASTFKEEPQTVPEARSRDATPPVSPINMEDQERIKVERKRLRNRLAATKCRKRKLERIARLEDKVKTLKAENAGLSSTAGLLREQVAQLKQKVMTHVSNGCQLLLGVKGHAF

Results are given in words; binding and its absence hold for the method and conditions named. Binding seen in cells or lysates may run through a third protein. Here binding means that the protein was enriched with, or labelled near, the bait; the list need not be complete.
